The source of these data is patent publication US20250009924A1, “Indane Derivatives for Malodor Counteraction” (Firmenich SA, priority 2015, published 2025).

The data set can be described thus: Air dilution olfactometry sensory panel, indole vs indole + compound. In kind it is in vivo, human. Conditions: iso-intense levels (medium perceived intensity). The protocol: Air dilution olfactometry was used to measure all psychophysical data of individual and mixed odorants. Odorized flows of air with precisely set concentrations were prepared by the evaporation of a known flux of odorant in a determined flow of air. The flux of odorant was delivered through a microsyringe operated by a calibrated micromotor into a heated vessel under a steady nitrogen flow. The odorant was vaporized and swept away by the nitrogen, and this primary flow was later diluted with humidified air to the desired concentration. Odorants can be presented one by one in olfactometers (see as a reference “Multidimensional visualization of physical and perceptual data leading to a creative approach in fragrance development”, C. Vuilleumier, M. van de Waal, H. Fontannaz, I. Cayeux and P. A. Rebetez, in Perfumer & Flavourist, 33, 55 (2008)); alternatively, a machine blending up to 12 flows of odorants in variable and adjustable proportions could be used. A sniffing outlet delivered a continuous and adjustable odorized air flow. The upper working limit was determined by the vapor pressure of the odorants at room temperature. The odorized flow was delivered at a temperature of 26° C., close to the temperature within the nose. The combination of air (540 l/h) and nitrogen (60 l/h) represented a total gas flow of 600 l/h with a relative humidity of 50%. The speed of injection of the solutions in the evaporation chamber was modulated and controlled for each subject and adjusted to obtain a medium perceived intensity (see above reference, for instance FIG. 4).
Standardized psychophysical procedures were used to determine olfactory detection thresholds (triangle testing) or perceived intensity, after a training period (see above reference).
A method was designed as an iterative process to obtain dose-response relationship and odor detection threshold of perfumery ingredients or malodorants with a minimum number of experiments (see FIG. 5 in the above reference).
FIG. 2 reports the radar plot of indole alone and indole+compound 1 obtained with a panel of 13 persons using a sensory protocol to evaluate the potential antagonists versus indole. The protocol involves two steps: • Step 1: the participants evaluated the tested ingredients and indole independently to adjust their individualized concentrations by changing the rate of injection (see above description and reference) to elicit a medium intensity perception for each chemical. These concentrations, corresponding to iso-intense levels, were applied in the second step of the process. The range of concentrations to be submitted to subjects was determined from dose-response relationships for the selected ingredients and indole. In the present experiment the molar ratio Compound 1/indole varied according to the individuals from about 1/1 to 10/1 (typical preferred individual range is between 2.5/1 and 4.5/1). • Step 2: Blind sensory evaluations were set; no information was disclosed to the participants on the submitted odorous stimuli. The subjects had to evaluate first indole alone at its individualized concentration and rate the following three descriptors on a linear labeled scale: • Pleasantness (From «Very unpleasant» to «Very pleasant») • Freshness (From «No Freshness» to «Very fresh») • Malodor character: Animal/Fecal/Tar (From «No . . . » to «Very . . . »)
The next submission, 30 seconds after the previous one to avoid odor adaptation, involved the simultaneous injection of indole and of the tested ingredient at individualized concentrations. The same descriptors were rated.
Take `Cc1ccc2c(c1)CC(C)(CO)C2` (stereo not shown) [Compound 1, 2,5-dimethyl-2-indanemethanol]: the “Compound/Indole, median of individual molar concentrations ratios” value was 3.0.

Turning to `COCC1(C)Cc2ccc(C)cc2C1` (stereo not shown) [Compound 2, (2,5-dimethyl-2,3-dihydro-1H-inden-2-yl)methyl methyl ether], the “Compound/Indole, median of individual molar concentrations ratios” value is listed as 23.9.

With `CC1(CO)Cc2ccccc2C1` [Compound 3, (2-methyl-2,3-dihydro-1H-inden-2-yl)methanol], the “Compound/Indole, median of individual molar concentrations ratios” value is 26.5.

With `Cc1ccc2c(c1)CC(CO)C2` (stereo not shown) [Compound 4, (5-methyl-2,3-dihydro-1H-inden-2-yl)methanol], the “Compound/Indole, median of individual molar concentrations ratios” value was 12.1.

On to `CC(=O)OCC1(C)Cc2ccccc2C1` [Compound 5, (2-methyl-2,3-dihydro-1H-inden-2-yl)methyl acetate], for which the “Compound/Indole, median of individual molar concentrations ratios” value came out at 51.1.

`CC(=O)C1(C)Cc2ccc(C)cc2C1` (stereo not shown) [Compound 6, 1-(2,5-dimethyl-2,3-dihydro-1H-inden-2-yl)ethanone]: the “Compound/Indole, median of individual molar concentrations ratios” value is 10.7.

Take `Cc1cc(C)c2c(c1)CC(C)(CO)C2` (stereo not shown) [Compound 16, (2,4,6-trimethyl-2,3-dihydro-1H-inden-2-yl)methanol]: the “Compound/Indole, median of individual molar concentrations ratios” value turned out to be 4.9.
